For some assays here: At least one structure is not confirmed: it was looked up by name or label, or the drawing left a doubt. Some of these results come from one statement about several compounds together.
Legend:
TNF-α = TNF-α production by Aa Y4 LPS-stimulated PBMCs (ELISA); type: cell-based, human; conditions: PBMCs pre-treated 2 hrs with 1×10^−4M anti-oxidant, then LPS 18 hrs
From the text: Cell Culture—PBMCs were isolated from buffy coats derived from healthy donors (Sylvan N. Goldman Oklahoma Blood Institute, Oklahoma City, Okla., USA) by density gradient centrifugation (Ficoll-Paque plus; GE Healthcare, Piscataway, N.J., USA). Oleuropein (purity=80.17%) was purchased from Sabinsa Corporation (Payson, Utah, USA). Silymarin (purity≥95%), ferulic acid (purity≥98%), hesperetin (purity≥95%), resveratrol (purity≥99%), and phloretin (purity≥99%) were purchased from Sigma-Aldrich (St Louis, Mo., USA). Dimethyl sulfoxide (DMSO) (purity=99.90%) was purchased from EMD Millipore (Billerica, Mass., USA). Oleuropein, silymarin, ferulic acid, hesperetin, resveratrol and phloretin were provided as 0.1M stock solutions prepared in DMSO by Periosciences Ltd (Dallas, Tex., USA).
PBMCs were seeded at either 4×10^5 or 1.2×10^6 cells in 96- or 48-well tissue culture plates (BD Biosciences, Franklin Lakes, N.J., USA) respectively. PBMCs were pre-treated with single antioxidants at a concentration of 1×10^−4 M or combinations of antioxidants with a combined concentration of 1×10^−4 M for 2 hrs prior to stimulation. […] S.C.) at a concentration of 1 μg/ml in the presence of antioxidants. Media were collected, spun at 1600 RPM and cell-free supernatants transferred to fresh tubes and stored at −20 C. Cell viability was assayed using CellTiter 96® AQueous One Solution Reagent (Promega, Madison, Wis., USA) following the manufacturers guidelines. 20 μl of the reagent was added to each well and incubated for 2 hrs under culture conditions. After 2 hrs the absorbance at 490 nm was recorded using a 96-well plate reader.
ELISA and Multiplex Assays—Human tumour necrosis factor-alpha (TNF-α) capture and detection Abs were purchased from Life Technologies (Carlsbad, Calif., USA) and used for the development of a TNF-α sandwich ELISA according to the manufacturer's instructions. Cell culture supernatants were analyzed using a 96-well plate reader with absorbance at 450 nm (reference 650 nm).
Stimulation of PBMCs with Aa Y4 LPS—To establish the optimal concentrations of anti-oxidants and LPS for this study, dose and kinetic experiments were performed. The doses examined were: 1×10^−4, 1×10^−5 and 1×10^−6M while the challenge concentrations of Aa Y4 LPS were 1, 10, 100 or 1000 ng/ml. Whole blood was stimulated with several concentrations of E. coli or Aa Y4 LPS and TNF-α production quantified by ELISA over 3 time-points: 16, 24 and 48 hrs.

TNF-α mRNA = assay: RT-PCR of TNF-α mRNA in LPS-stimulated PBMCs; type: cell-based, human; conditions: harvested after 4 hrs, 2-ΔΔCt, GAPDH control
Procedure: RT-PCR Assays—Total RNA was extracted from homogenized cells using the miRNeasy kit (Qiagen, Valencia, Calif., USA) according to the manufacturer's protocol. Total RNA quantified on Nanodrop (ThermoScientific, Rockford, Ill., USA) was used for first strand cDNA synthesis using the SS RTIII kit (Life Technologies, Carlsbad, Calif., USA). Real-time PCR was performed using EvaGreen 2× master mix (Biotium, Hayward, Calif., USA), 10 pmol forward and reverse gene specific primers and 1 ul of 1:10 diluted cDNA. GAPDH was used as endogenous control. The fold change was calculated using 2-ΔΔCt method and the control was set at 1. Custom primers were purchased from Sigma-Aldrich (St Louis, Mo., USA). Primer sequences for TNF-α were: Forward, […], Reverse: […]. Primer sequences for IκB-α were: Forward, […], Reverse: […]. Data Analysis—Statistics were performed using two-tailed t-test or one-way analysis of variance (ANOVA). Statistical significance is indicated by an asterisk *, where p≤0.05. Error bars on all graphs indicate standard error of mean (SEM) or standard deviation (SD).
Inhibition of TNF-α is present at the level of mRNA transcription—Whether the reduced production of inflammatory mediators was due to decreased mRNA transcription was investigated. […] After 4 hrs the cells were harvested, total RNA isolated and RT-PCR performed to measure the levels of TNF-α mRNA present. […]

| SMILES | reduction of TNF-α levels compared to controls (TNF-α) | TNF-α production (TNF-α) | reduction of TNF-α mRNA expression levels (TNF-α mRNA) |
| --- | --- | --- | --- |
| COc1ccc([C@@H]2CC(=O)c3c(O)cc(O)cc3O2)cc1O [hesperetin] | more than 50% | – | – |
| C/C=C1/[C@H](O[C@@H]2O[C@H](CO)[C@@H](O)[C@H](O)[C@H]2O)OC=C(C(=O)OC)[C@H]1CC(=O)OCCc1ccc(O)c(O)c1 [oleuropein, Oleuropein] | – | no observed effect | – |
| O=C(CCc1ccc(O)cc1)c1c(O)cc(O)cc1O [phloretin] | more than 50% | – | – |
| Oc1ccc(C=Cc2cc(O)cc(O)c2)cc1 [resveratrol] | more than 75% | – | greater than 2 fold |

Source: patent publication US10918613B2, “Antioxidant compositions for treatment of inflammation or oxidative damage” (Perio Sciences, LLC, priority 2011, dated 2021)
